In assay [1] the target is human PDGFRb (human) (UniProt P09619). Kind of assay: dsDNA display selection of the HCDR3 shuffled VH library with human PDGFRb and off rate selection.
In assay [2] the target is human PDGFR-hIgG1-Fc chimeric fusion protein (human) (UniProt P09619). Kind of assay: SPR (Biacore T100), PDGFR-hIgG1-Fc captured by anti-hIgG1 Fc. For orientation: SPR reads the build-up and loss of mass on a sensor chip optically.
Assay [3] addresses mouse PDGFR-hIgG1-Fc chimeric fusion protein (mouse; human) (UniProt P05622). The assay is described as above.
Assay [4] has as its target human PDGFRb (human) (UniProt P09619). Kind of assay: dsDNA display selection of the HCDR3 shuffled VH library; clone sequenced from the selected pool.
Assay [5] shares this target. The experiment in a line: DNA display selection, six rounds on human PDGFRb.

By UniProt entry, the sequences of proteins in these tests, tags left out. Where a name states a change or a piece, a line headed by the entry shows the natural chain unless it says otherwise. Residues count along the entry.
UniProt P05622, residues 32-530: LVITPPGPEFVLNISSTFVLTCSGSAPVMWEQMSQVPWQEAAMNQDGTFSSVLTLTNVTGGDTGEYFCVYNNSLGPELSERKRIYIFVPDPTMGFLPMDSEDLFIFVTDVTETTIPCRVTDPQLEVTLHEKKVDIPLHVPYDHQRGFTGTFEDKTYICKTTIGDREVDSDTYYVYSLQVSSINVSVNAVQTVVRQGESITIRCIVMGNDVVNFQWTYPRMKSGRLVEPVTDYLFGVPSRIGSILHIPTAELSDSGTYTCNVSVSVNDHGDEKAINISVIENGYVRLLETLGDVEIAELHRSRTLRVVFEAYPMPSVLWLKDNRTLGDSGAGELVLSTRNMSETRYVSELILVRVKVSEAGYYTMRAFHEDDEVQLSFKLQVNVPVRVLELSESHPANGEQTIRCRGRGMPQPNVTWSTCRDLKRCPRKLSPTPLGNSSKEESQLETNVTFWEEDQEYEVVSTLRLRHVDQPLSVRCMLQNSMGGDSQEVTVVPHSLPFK

These are yes or no findings as the source states them, for the method shown. Some results given as binding are weak or reduced against the parent protein; the word gives no strength.

B1: VH domain clone D03. (SEQ ID NO: 62) (protein)
VH: QVQLVQSGGGLVQPGGSLRLSCVASGFTFGNDWMHWVRQAPGKGLVWVSRINADGTSTAYAESVKGRFTVSRDNAKNTLYLQMNGLRAEDTAVYYCATHGGDRSYWGQGTLVTVSS
Take B1: in the assay with human PDGFRb (human) [1], the binding result is “binds”.

B2: XB2202 VH domain (protein)
VH: QVQLVQSGAEVKKPGSSVRVSCKASGGTFSRHAISWVRQAPGQGLEWIGGILPILKTPNYAQRFQGRVTINADESTSTVYMEMSSLRSEDTAVYYCATHGGDRSYWGQGTLVTVSS
With B2, the binding result (in assay [2]; in assay [3]; with human PDGFRb (human) [4]) was “binds” each time.

B3: VH domain clone C09. (SEQ ID NO: 64) (protein)
VH: QVQLVQSGGALVQPGGSLRLSCAASGFTLSNNAMSWVRQAPGKRLEWVSAIDGSGGTTYYAGSVKGRFTISSDNSKNTVFLQMNSLRAEDTAVYYCATHGGDRSYWGQGTLVTVSS
Take B3: in the assay with human PDGFRb (human) [1], the binding entry is given as “binds”.

B4: VH domain clone E11. (SEQ ID NO: 58) (protein)
VH: QVQLVESGGGVVQPGRSLRLSCAASGFTFSSYWMHWVRQAPGKGLVWVSRINNDGSSTSYADSVKGRFTISRDTAKNTLYLQMNSLRAEDTAVYYCATHGGDRSYWGQGTLVTVSS
In the case of B4, the binding result in the assay with human PDGFRb (human) [4] is “binds”.

B5: XB2708 VH domain (protein)
VH: QVQLVQSGGGVVQPGGSLRLSCAASGFTSRSYGMHWVRQAPGKGLEWVAFILFDGNNKYYADSVKGRFTISSDNSKNTLYLQMNSLRAEDTAVYYCATHGGDRSYWGQGTLVTVSS
Consider B5, for which the binding result (in assay [2]; in assay [3]; with human PDGFRb (human) [1]) was “binds” in each case.

B6: VH domain clone C08. (SEQ ID NO: 60) (protein)
VH: EVQLLESEGGLVQPGGSLRLSCTASGFSFNAFWMHWVRQAPGKGLEWVSRISIDGTTTTYADSVQGRFTISRDNARNTLYLQMNSLRAEDAAVYYCATHGGDRSYWSQGTLVTVSS
As for B6, in the assay with human PDGFRb (human) [4], the binding result was “binds”.

B7: VH domain clone A10. (SEQ ID NO: 63) (protein)
VH: QVQLVQSGGGLVQPGRSLRLSCAASGFTFDDYAMNWVRQAPGKGLEWVSLIYSDGSTYYADSVKGRFTISRDNSKKTLYLQMNNLRVEDTAVYYCATHGGDRSYWGQGTLVTVSS
B7: in the assay with human PDGFRb (human) [1], the binding result is listed as “binds”.

B8: VH domain clone C05. (SEQ ID NO: 66) (protein)
VH: QVQLVQSGGGLVKPGGSLRLSCAASGFIFSSNWMHWVRQVPGKGLEWVSRIKTDGSSTSYADSVKGRFTISRDNAKNTLYLQMNSLRAEDTAVYYCATHGGDRSYWGQGTLVTVSS
In the case of B8, the binding result in the assay with human PDGFRb (human) [1] is “binds”.

B9: VH domain clone H01. (SEQ ID NO: 67) (protein)
VH: QVQLVQSGGGLVQPGGSLRLSCAASGFTLSSDWMHWVRQAPGKGLVWVSRISSDGSTTAYADSVRGRFTISRDNAKNTLYLQMNSLRAEDTAVYYCATHGGDRSYWGQGTLVTVSS
Consider B9, for which, in the assay with human PDGFRb (human) [1], the binding result was “binds”.

B10: VH domain clone G04. (SEQ ID NO: 68) (protein)
VH: QVQLVQSGGGLVQPGGSLRLSCAASGFTLSSDWMHWVRQAPGKGLVWVSRISSDGSTTAYADSVRGRFTISRDNTKNTLYLQMNSLRAEDTAVYYCATHGGDRSYWGQGTLVTVSS
Take B10: in the assay with human PDGFRb (human) [1], the binding result is “binds”.

B11: VH domain clone G07. (SEQ ID NO: 69) (protein)
VH: QVQLVQSGGGLVQPGGSLRLSCAASGFTFSSDWMHWVRQAPGEGLVWVSRISSDGSSTAYADSVKGRFTISRDNAKNTVSLQMNSLRAEDTAVYYCATHGGDRSYWGQGTLVTVSS
Take B11: the binding entry with human PDGFRb (human) [1] is “binds”.

B12: VH domain clone H11. (SEQ ID NO: 59) (protein)
VH: QVQLLESGAEVKNPGASVKVSCKASGYPFSAYYIQWVRQAPGQGLEWMGWLNPNSGDTHSAQKFQGRVTMTRDTSISTAYMELSGLTSDDTAVYYCATHGGDRSYWGQGTLVTVSS
On to B12, for which the binding result with human PDGFRb (human) [4] is listed as “binds”.

B13: VH domain clone B4 (SEQ ID NO: 2) (protein)
VH: QVQLVQSGAEVKKPGASVKVSCKASGYTFTSYAISWVRQAPGQGLEWMGGIIPIFGTANYAQKFQGRVTITADESTSTAYMELSSLRSEDTAVYYCAIHGGDRSYWGQGTLVTVSS
B13: in the assay with human PDGFRb (human) [5], the binding entry was “binds”.

B14: VH domain clone G2 (SEQ ID NO: 3) (protein)
VH: QVQLVQSGAEVKKPGASVKVSCKASGYTFTGYAISWVRQAPGQGLEWMGGIIPIFGTANYAQKFQGRVTITADESTSTAYMELSSLRSKDTAVYYCAIHGGDRSYWGQGTLVTVSS
Regarding B14, the binding result in the assay with human PDGFRb (human) [5] is reported as “binds”.

B15: VH domain clone A06. (SEQ ID NO: 65) (protein)
VH: QVQLVQSGGGLVQPGGSLRLSCAASGFTFSGHWMHWVRQVPGKGLVWVSHISNDGSITRYADSVKGRFTVARDNAKNTMYLQMNSLRAEDTAVYYCATHGGDRSYWGQGTLVTVSS
As to B15, the binding entry in the assay with human PDGFRb (human) [1] is “binds”.

(Values after patent publication US20140113831A1.)
